# PubChem BioAssay AID1159590, NIAID – 2016
# Test: 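Which core TLR signalling genes NF-kB activation by Pam3CSK4 depends on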
# System: mouse RAW264.7 macrophage reporter cells expressing GFP-p65 and a Tnf promoter-mCherry
# Knock-down reagent: single siRNA against mouse genes
# Timing: 48 to 72 hours after siRNA transfection, then 40 minutes of ligand
# Challenge: Pam3CSK4 (TLR2/1 agonist) for 40 minutes before fixation; dose not given
# Measured: 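p65 nuclear translocation measured by high-content imaging, shown for each siRNA as a robust z-score averaged across replicates, relative to negative controls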
# Direction: p65 nuclear entry z-score: higher = more p65 moved into nuclei than in negative-control wells
# Call rule: In these data the active calls have p65 nuclear entry z-score, replicate mean at about -1.5 or lower, or at about 1.5 or higher
# Meaning of the calls: active = strong change, up or down; inactive = little change
# Here is one part, drawn at random, of 756 reagents tested. 128 of all reagents (17%) were called active. 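Calls are two-sided: both reduced and increased p65 nuclear entry count as active.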 Reagents against one gene are numbered here. Not stated in the record: the amount of reagent.
"p65 nuclear entry z-score, replicate mean",call,gene,reagent no.
-0.829,inactive,Tbkbp1 (TBK1 binding protein 1),1
-1.51,active,Tbkbp1 (TBK1 binding protein 1),2
1.07,inactive,Tbkbp1 (TBK1 binding protein 1),3
8.11,active,Tbkbp1 (TBK1 binding protein 1),4
-0.266,inactive,Tbkbp1 (TBK1 binding protein 1),5
-1.51,active,Tbkbp1 (TBK1 binding protein 1),6
-1.18,inactive,Nfkbib,1
-0.314,inactive,Nfkbib,2
0.531,inactive,Nfkbib,3
0.253,inactive,Nfkbib,4
12.3,active,Nfkbib,5
-0.55,inactive,Nfkbib,6
-1.94,active,Ccl3 (C-C motif chemokine ligand 3),1
0.0867,inactive,Ccl3 (C-C motif chemokine ligand 3),2
-0.481,inactive,Ccl3 (C-C motif chemokine ligand 3),3
0.163,inactive,Ccl3 (C-C motif chemokine ligand 3),4
-0.591,inactive,Ccl3 (C-C motif chemokine ligand 3),5
5.37,active,Ccl3 (C-C motif chemokine ligand 3),6
-1.08,inactive,Elk4 (ETS transcription factor ELK4),1
0.34,inactive,Elk4 (ETS transcription factor ELK4),2
0.249,inactive,Elk4 (ETS transcription factor ELK4),3
0.28,inactive,Elk4 (ETS transcription factor ELK4),4
-0.274,inactive,Elk4 (ETS transcription factor ELK4),5
-1.01,inactive,Elk4 (ETS transcription factor ELK4),6
-0.533,inactive,Irak3 (interleukin-1 receptor-associated kinase 3),1
0.0167,inactive,Irak3 (interleukin-1 receptor-associated kinase 3),2
-1.4,inactive,Irak3 (interleukin-1 receptor-associated kinase 3),3
-1.12,inactive,Irak3 (interleukin-1 receptor-associated kinase 3),4
0.68,inactive,Irak3 (interleukin-1 receptor-associated kinase 3),5
-1.66,active,Irak3 (interleukin-1 receptor-associated kinase 3),6
-1.27,inactive,Irak2 (interleukin-1 receptor-associated kinase 2),1
-0.295,inactive,Irak2 (interleukin-1 receptor-associated kinase 2),2
-1.82,active,Irak2 (interleukin-1 receptor-associated kinase 2),3
-0.701,inactive,Irak2 (interleukin-1 receptor-associated kinase 2),4
-0.538,inactive,Irak2 (interleukin-1 receptor-associated kinase 2),5
0.227,inactive,Irak2 (interleukin-1 receptor-associated kinase 2),6
0.0849,inactive,Casp8 (caspase 8),1
-1.06,inactive,Casp8 (caspase 8),2
-0.693,inactive,Casp8 (caspase 8),3
0.313,inactive,Casp8 (caspase 8),4
-1.72,active,Casp8 (caspase 8),5
-0.992,inactive,Casp8 (caspase 8),6
-0.227,inactive,Irf3 (interferon regulatory factor 3),1
1.93,active,Irf3 (interferon regulatory factor 3),2
-0.921,inactive,Irf3 (interferon regulatory factor 3),3
0.178,inactive,Irf3 (interferon regulatory factor 3),4
-0.298,inactive,Irf3 (interferon regulatory factor 3),5
-0.834,inactive,Irf3 (interferon regulatory factor 3),6
0.882,inactive,Mapk8 (mitogen-activated protein kinase 8),1
-0.926,inactive,Mapk8 (mitogen-activated protein kinase 8),2
0.251,inactive,Mapk8 (mitogen-activated protein kinase 8),3
-0.354,inactive,Mapk8 (mitogen-activated protein kinase 8),4
-1.43,inactive,Mapk8 (mitogen-activated protein kinase 8),5
-1.59,active,Mapk8 (mitogen-activated protein kinase 8),6
-0.953,inactive,Map3k7 (mitogen-activated protein kinase kinase kinase 7),1
-0.748,inactive,Map3k7 (mitogen-activated protein kinase kinase kinase 7),2
-1.29,inactive,Map3k7 (mitogen-activated protein kinase kinase kinase 7),3
-1.15,inactive,Map3k7 (mitogen-activated protein kinase kinase kinase 7),4
-0.122,inactive,Map3k7 (mitogen-activated protein kinase kinase kinase 7),5
-0.536,inactive,Map3k7 (mitogen-activated protein kinase kinase kinase 7),6
0.298,inactive,Ly96 (lymphocyte antigen 96),1
-0.0421,inactive,Ly96 (lymphocyte antigen 96),2
-0.26,inactive,Ly96 (lymphocyte antigen 96),3
-0.86,inactive,Ly96 (lymphocyte antigen 96),4
-0.468,inactive,Ly96 (lymphocyte antigen 96),5
-0.313,inactive,Ly96 (lymphocyte antigen 96),6
-0.997,inactive,Il6 (interleukin 6),1
-0.2,inactive,Il6 (interleukin 6),2
0.178,inactive,Il6 (interleukin 6),3
0.748,inactive,Il6 (interleukin 6),4
-0.683,inactive,Il6 (interleukin 6),5
-0.534,inactive,Il6 (interleukin 6),6
0.0516,inactive,Map2k1 (mitogen-activated protein kinase kinase 1),1
-0.626,inactive,Map2k1 (mitogen-activated protein kinase kinase 1),2
-0.765,inactive,Map2k1 (mitogen-activated protein kinase kinase 1),3
-0.0843,inactive,Map2k1 (mitogen-activated protein kinase kinase 1),4
0.356,inactive,Map2k1 (mitogen-activated protein kinase kinase 1),5
-1.11,inactive,Map2k1 (mitogen-activated protein kinase kinase 1),6
-0.182,inactive,Btk (Bruton agammaglobulinemia tyrosine kinase),1
-0.232,inactive,Btk (Bruton agammaglobulinemia tyrosine kinase),2
-1.02,inactive,Btk (Bruton agammaglobulinemia tyrosine kinase),3
-0.51,inactive,Btk (Bruton agammaglobulinemia tyrosine kinase),4
3.77,active,Btk (Bruton agammaglobulinemia tyrosine kinase),5
1.6,active,Btk (Bruton agammaglobulinemia tyrosine kinase),6
-0.0883,inactive,Itgax (integrin alpha X),1
-1.51,active,Itgax (integrin alpha X),2
-1.18,inactive,Itgax (integrin alpha X),3
0.634,inactive,Itgax (integrin alpha X),4
1.13,inactive,Itgax (integrin alpha X),5
-0.659,inactive,Itgax (integrin alpha X),6
1.26,inactive,Tank (TRAF family member-associated Nf-kappa B activator),1
3.95,active,Tank (TRAF family member-associated Nf-kappa B activator),2
0.589,inactive,Tank (TRAF family member-associated Nf-kappa B activator),3
-0.593,inactive,Tank (TRAF family member-associated Nf-kappa B activator),4
0.888,inactive,Tank (TRAF family member-associated Nf-kappa B activator),5
-0.924,inactive,Tank (TRAF family member-associated Nf-kappa B activator),6
-1.09,inactive,Cxcl9 (C-X-C motif chemokine ligand 9),1
-0.623,inactive,Cxcl9 (C-X-C motif chemokine ligand 9),2
-0.354,inactive,Cxcl9 (C-X-C motif chemokine ligand 9),3
0.0113,inactive,Cxcl9 (C-X-C motif chemokine ligand 9),4
-0.617,inactive,Cxcl9 (C-X-C motif chemokine ligand 9),5
-1.41,inactive,Cxcl9 (C-X-C motif chemokine ligand 9),6
2.05,active,Rac1 (Rac family small GTPase 1),1
0.461,inactive,Rac1 (Rac family small GTPase 1),2
-1.49,inactive,Rac1 (Rac family small GTPase 1),3
-0.799,inactive,Rac1 (Rac family small GTPase 1),4
-0.599,inactive,Rac1 (Rac family small GTPase 1),5
-0.626,inactive,Rac1 (Rac family small GTPase 1),6
1.33,inactive,Map3k1 (mitogen-activated protein kinase kinase kinase 1),1
-0.42,inactive,Map3k1 (mitogen-activated protein kinase kinase kinase 1),2
-0.543,inactive,Map3k1 (mitogen-activated protein kinase kinase kinase 1),3
-0.792,inactive,Map3k1 (mitogen-activated protein kinase kinase kinase 1),4
0.711,inactive,Map3k1 (mitogen-activated protein kinase kinase kinase 1),5
0.279,inactive,Map3k1 (mitogen-activated protein kinase kinase kinase 1),6
